Measured values as given in patent US20190350200A1, “SYNERGISTIC ANTIMICROBIAL COMPOSITIONS” (JUBILANT LIFE SCIENCES LIMITED, priority 2016, published 2019).

System: Malassezia furfur
Test: Zone of inhibition, disc diffusion method
Assay type: cell-based
Settings: 48 h
Method: The antimicrobial efficacy was determined by measuring zone of inhibition using disc diffusion method against E. Coli, Malassezia furfur, Pseudomonas, Aspergillus niger, Staphylococcus and Candida. […] The culture plates were incubated at 37° C. for 48 hrs and anti-microbial activity was evaluated by observing an area of no growth around the disc. An area of no growth around the swatch is known as a zone of inhibition.

SMILES: CCCCCCCCCCCCCCCC[n+]1ccccc1 [QAC, Cetyl pyridinium chloride]
- zone of inhibition at 0.5 % strength: 16 mm
- zone of inhibition at 1 % strength: 20 mm
- zone of inhibition at 2 % strength: 30 mm
- zone of inhibition at […] strength: 8 mm
